The values that follow come from paper PMC9151520 (Archives of Toxicology, 2022).

A word on the EC50: it is the concentration at which the effect is half-maximal.

The assay concerns p53 signaling (p53RE-bla HCT-116 cells). Nature of the assay: cells. The assay is classed as cell-based. Conditions: Homo sapiens, HCT-116, read-out: p53 activation EC50, cherry pick confirmation.

For `CNC(=O)c1ccccc1Sc1ccc2c(/C=C/c3ccccn3)n[nH]c2c1` [Axitinib], the EC50 came to 3.82 µM.
